System: HepG2 HCC cells
Assay: Affymetrix whole-genome expression microarray, HepG2
Assay type: cell-based
Conditions: HepG2, 0.2 µM, 2 days

With `COc1ccc(C[C@H]2NC[C@H](O)[C@H]2OC(C)=O)cc1` [anisomycin] the “Number of probes downregulated by ≥2-fold versus vehicle” value was 1,195 and the “Number of probes upregulated by ≥2-fold versus vehicle” value was 1,173.

From PMC6045618, “Novel natural killer cell-mediated cancer immunotherapeutic activity of anisomycin against hepatocellular carcinoma cells” (Scientific Reports, 2018)
